{"source": "PubChem BioAssay AID504834", "about": "(National Center for Advancing Translational Sciences (NCATS), 2011)", "note": "The campaign covered roughly 320,000 compounds. About 22,000 (6.9%) were called active. The inconclusive results got no clear call from the source; some entries with a clear call stand among them for comparison. Calls follow the shape of the dose curve; as a rule, active = well fitted inhibition curve with a large enough effect; inconclusive = small, poorly fitted or top-dose-only effect, or another doubt; inactive = no such curve, though single readings can be large or run the other way. Potencies beside an inconclusive call are fits to weak or partial responses and may not hold up. Potency is read from the fitted curve at half-maximal effect."}
{"assay": "Primary qHTS for delayed death inhibitors of the malarial parasite plastid, 96 hour incubation", "settings": "P. falciparum luciferase reporter growth; series mostly up to 28.7 µM", "how_it_was_run": "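Erythrocytes infected with luciferase-expressing P. falciparum were dispensed at 2% hematocrit and 0.05% parasitemia (final), then incubated with compounds 96 hours at 37 C in 5% CO2. Luminescence after detection reagent addition reported growth.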"}
{"smiles": "Cc1ccc2nc(SCC(=O)N3CCN(c4ccccc4)CC3)[nH]c2c1", "Potency": "inconclusive: 20.8 µM [inhibitor, partial curve, poor fit]"}
{"smiles": "CCNC(=O)N1CCCC(C(=O)c2ccc(-c3ccccc3)cc2)C1", "note": "(stereo not given)", "Potency": "active: 10.4 µM"}
{"smiles": "COC(=O)c1ccc(NC(=S)NC2CCCCC2C)cc1", "note": "(stereo not given)", "Potency": "inconclusive: 4.15 µM [inhibitor, single point]"}
{"smiles": "O=C(CCC(=O)N1CCN(Cc2ccc(F)cc2)CC1)Nc1nnc(C2CCCCC2)s1", "Potency": "inconclusive: 13.1 µM [inhibitor, partial curve]"}
{"smiles": "COc1ccccc1CNC(=O)CSc1ccc(-c2cccs2)nn1", "Potency": "inconclusive: 0.329 µM [inhibitor, partial curve, poor fit]"}
{"smiles": "COc1ccc(-n2c(SCC(=O)Nc3ccc([N+](=O)[O-])cc3OC)nc3ccccc32)cc1", "Potency": "inactive"}
{"smiles": "N#Cc1c(-c2ccccc2)ccnc1N1CCOCC1", "Potency": "inactive"}
{"smiles": "O=C(CN1CCN(S(=O)(=O)c2cc(C(F)(F)F)ccc2Cl)CC1)N1CCc2ccccc2C1", "Potency": "inconclusive: 14.7 µM [inhibitor, single point]"}
{"smiles": "Cc1nonc1C1CCCN1C(=O)c1cc(COc2cccc(C(F)(F)F)c2)on1", "note": "(stereo not given)", "Potency": "inactive"}
{"smiles": "O=C(NCC1CCCO1)c1ccc(C(=O)NCC2CCCO2)cc1", "note": "(stereo not given)", "Potency": "active: 0.465 µM"}
{"smiles": "COCCCn1c(=O)c2sccc2n2c(CCCC(=O)NCc3ccc(OC)cc3)nnc12", "Potency": "inconclusive: 11.7 µM [inhibitor, single point]"}
{"smiles": "CCc1ccccc1N(CC(=O)NCc1ccc(OC)cc1)C(=O)CCC(=O)Nc1ccccn1", "Potency": "inconclusive: 2.94 µM [inhibitor, partial curve, poor fit]"}
{"smiles": "COc1ccc(OC)c(NS(=O)(=O)c2ccc3c(c2)CCC(=O)N3)c1", "Potency": "inactive"}
{"smiles": "O=C(Nc1cc(NC(=O)c2ccccc2F)ccc1Cl)c1ccccc1", "Potency": "inactive"}
{"smiles": "O=C(NCC(c1ccccc1Cl)N1CCCC1)C1CCN(C(=O)Nc2ccccc2)CC1", "note": "(stereo not given)", "Potency": "inconclusive: 10.4 µM [inhibitor, single point]"}
{"smiles": "CC(=O)c1ccc(NC(=O)Cc2cccs2)cc1", "Potency": "inactive"}
{"smiles": "O=C(CCCSc1nc2ccccc2s1)NCc1ccco1", "Potency": "inconclusive: 18.5 µM [inhibitor, single point]"}
{"smiles": "CCOCCCNc1ncnc2c1nc1n2CCCC1", "Potency": "inconclusive: 13.1 µM [inhibitor, single point]"}
{"smiles": "c1coc(-c2nc3ccccc3nc2-c2ccco2)c1", "Potency": "inconclusive: 14.7 µM [inhibitor, single point]"}
{"smiles": "O=C1C(Cc2ccc3[nH]ccc3c2)NC(=S)N1c1ccccc1", "note": "(stereo not given)", "Potency": "inactive"}
{"smiles": "COc1ccccc1N1CCN(c2ccc([N+](=O)[O-])cc2Cl)CC1", "Potency": "inconclusive: 18.5 µM [inhibitor, single point]"}
{"smiles": "O=C(O)COc1ccc(-c2nccc(-c3cccs3)n2)cc1", "Potency": "inconclusive: 5.22 µM [inhibitor, partial curve]"}
{"smiles": "CCOC(=O)C1CCN(S(=O)(=O)c2ccc3c(c2)CC(C)N3C(=O)C2CCC2)CC1", "note": "(stereo not given)", "Potency": "inconclusive: 9.28 µM [inhibitor, partial curve, poor fit]"}
{"smiles": "CCN(CC)CCC(=O)Nc1ccc2c(c1)N(C(=O)CN(CC)CC)c1ccccc1CC2", "Potency": "inconclusive: 2.08 µM [inhibitor, partial curve, poor fit]"}
{"smiles": "CN1CCN(Cc2c(F)cccc2Cl)CC1", "Potency": "inconclusive: 11.7 µM [inhibitor, single point]"}
{"smiles": "O=C(O)CCCNC(=O)CC1S/C(=N/N=C/c2ccccc2O)NC1=O", "note": "(stereo not given)", "Potency": "inactive"}
{"smiles": "O=C(CCN1C(=O)COc2ccccc21)NCCCN1CCc2ccccc2C1", "Potency": "inconclusive: 0.522 µM [inhibitor, full curve, poor fit]"}
{"smiles": "COc1cc(CNc2ccc(N3CCOCC3)cc2)ccc1OCC(=O)NC(C)(C)C", "Potency": "inactive"}
{"smiles": "Cc1ccc(OCCCC(=O)Nc2nccs2)cc1", "Potency": "inconclusive: 18.5 µM [inhibitor, partial curve, poor fit]"}
{"smiles": "CCCSc1nnc(CSc2nc3ccccc3s2)n1-c1ccccc1", "Potency": "inconclusive: 10.4 µM [inhibitor, single point]"}
{"smiles": "CC(=O)c1cccc(CN2CCC(C(=O)Nc3ccc(Oc4cccnc4)cc3)CC2)c1", "Potency": "inconclusive: 18.5 µM [inhibitor, single point]"}
{"smiles": "CCN(c1ccccc1)S(=O)(=O)c1nnc(NC(=O)CC(C)C)s1", "Potency": "inconclusive: 9.28 µM [inhibitor, single point]"}
{"smiles": "CC(C)CC(=O)C1=C(O)C(=O)N(Cc2ccccc2)C1c1ccccc1", "note": "(stereo not given)", "Potency": "inactive"}
{"smiles": "C/C(=N\\NC(=O)c1cc2ccccc2cc1O)c1ccc(C)o1", "Potency": "inactive"}
{"smiles": "Cc1ccc(S(=O)(=O)Nc2cc3c4c(c2)C(C)C(=O)N4CCC3)cc1", "note": "(stereo not given)", "Potency": "inconclusive: 2.08 µM [inhibitor, full curve]"}
{"smiles": "O=C1OCc2cc(-n3cccc3)ccc21", "Potency": "inconclusive: 0.0928 µM [inhibitor, full curve, poor fit]"}
{"smiles": "O=C(O)c1cccc(-n2sc3ccccc3c2=O)c1", "Potency": "inconclusive: 13.1 µM [inhibitor, single point]"}
{"smiles": "O=C(O)C(c1ccccc1)N1CCCCC1", "note": "(stereo not given)", "Potency": "inactive"}
{"smiles": "O=c1c(-c2ccco2)[n+]([O-])c2ccccc2n1OCc1ccccc1F", "Potency": "inconclusive: 0.0586 µM [inhibitor, full curve, poor fit]"}
{"smiles": "CC(=O)NC1(C(F)(F)F)C(=O)Nc2c1c(=O)[nH]c(=O)n2CC(C)C", "note": "(stereo not given)", "Potency": "inconclusive: 5.22 µM [inhibitor, partial curve]"}
{"smiles": "O=c1cc(N2CCc3ccccc32)[nH]c(=O)n1Cc1ccc(F)cc1", "Potency": "inconclusive: 0.037 µM [inhibitor, full curve, poor fit]"}
{"smiles": "Clc1ccc(-c2nnc(-c3ccc(Br)o3)o2)c(Cl)c1", "Potency": "inactive"}
{"smiles": "CC1(C)Nc2ccccc2C(=O)N1NS(=O)(=O)c1ccccc1", "Potency": "inconclusive: 18.5 µM [inhibitor, single point]"}
{"smiles": "CCCCn1c(N)c(N(CCOC)C(=O)COC(=O)COc2c(C)cc(C)cc2C)c(=O)[nH]c1=O", "Potency": "inactive"}
{"smiles": "CCCNC(=O)N1[C@H]2CC[C@@H]1C(C(=O)OC)=C(c1ccc(-c3ccccc3)c(F)c1)C2", "Potency": "inconclusive: 4.65 µM [inhibitor, partial curve]"}
